{
  "source": "patent US20120252723A1",
  "about": "“Regulating the Amino Acid Pool Used for the Acute-Phase Protein Synthesis” (N.V. Nutricia, priority 2009, published 2012)",
  "system": "HepG2 cells",
  "test": "Amino acid consumption of HepG2 cells after IL-6 stimulation in complete medium (HPLC of media)",
  "assay_type": "cell-based, human",
  "details": "for change in concentration of amino acid in the media: 0 to 24 h; for Concentration of amino acids in RPMI-1640 media: n = 6",
  "key": {"[1]": {"details": "HepG2 cells after IL-6 stimulation"}, "[2]": {"details": "T = 24 h, HepG2 cells after IL-6 stimulation"}},
  "data": [
    {"molecule": "C[C@H](N)C(=O)O", "note": "[Ala, alanine]", "values": [
      {"measurement": "change in concentration of amino acid in the media", "setting": "[1]", "value": "decrease"},
      {"measurement": "Concentration of amino acids in RPMI-1640 media", "setting": "T = 0 h", "value": "213 ± 5", "unit": "µM"},
      {"measurement": "Concentration of amino acids in RPMI-1640 media", "setting": "[2]", "value": "144 ± 8", "unit": "µM"}
    ]},
    {"molecule": "N=C(N)NCCC[C@H](N)C(=O)O", "note": "[Arg, arginine]", "values": [
      {"measurement": "Concentration of amino acids in RPMI-1640 media", "setting": "T = 0 h", "value": "292 ± 11", "unit": "µM"},
      {"measurement": "Concentration of amino acids in RPMI-1640 media", "setting": "[2]", "value": "267 ± 12", "unit": "µM"}
    ]},
    {"molecule": "NC(=O)C[C@H](N)C(=O)O", "note": "[Asn, asparagine]", "values": [
      {"measurement": "Concentration of amino acids in RPMI-1640 media", "setting": "T = 0 h", "value": "358 ± 17", "unit": "µM"},
      {"measurement": "Concentration of amino acids in RPMI-1640 media", "setting": "[2]", "value": "331 ± 15", "unit": "µM"}
    ]},
    {"molecule": "N[C@@H](CC(=O)O)C(=O)O", "note": "[Asp, aspartic acid]", "values": [
      {"measurement": "change in concentration of amino acid in the media", "setting": "[1]", "value": "decrease"},
      {"measurement": "Concentration of amino acids in RPMI-1640 media", "setting": "T = 0 h", "value": "377 ± 18", "unit": "µM"},
      {"measurement": "Concentration of amino acids in RPMI-1640 media", "setting": "[2]", "value": "339 ± 15", "unit": "µM"}
    ]},
    {"molecule": "NC(=O)CC[C@H](N)C(=O)O", "note": "[Gln, glutamine]", "values": [
      {"measurement": "change in concentration of amino acid in the media", "setting": "[1]", "value": "decrease"},
      {"measurement": "Concentration of amino acids in RPMI-1640 media", "setting": "T = 0 h", "value": "392 ± 14", "unit": "µM"},
      {"measurement": "Concentration of amino acids in RPMI-1640 media", "setting": "[2]", "value": "212 ± 3", "unit": "µM"}
    ]},
    {"molecule": "N[C@@H](CCC(=O)O)C(=O)O", "note": "[Glu, glutamic acid]", "values": [
      {"measurement": "change in concentration of amino acid in the media", "setting": "[1]", "value": "significant increase"},
      {"measurement": "Concentration of amino acids in RPMI-1640 media", "setting": "T = 0 h", "value": "408 ± 20", "unit": "µM"},
      {"measurement": "Concentration of amino acids in RPMI-1640 media", "setting": "[2]", "value": "465 ± 23", "unit": "µM"}
    ]},
    {"molecule": "NCC(=O)O", "note": "[Gly, glycine]", "values": [
      {"measurement": "Concentration of amino acids in RPMI-1640 media", "setting": "T = 0 h", "value": "661 ± 40", "unit": "µM"},
      {"measurement": "Concentration of amino acids in RPMI-1640 media", "setting": "[2]", "value": "607 ± 37", "unit": "µM"}
    ]},
    {"molecule": "N[C@@H](Cc1c[nH]cn1)C(=O)O", "note": "[His, histidine]", "values": [
      {"measurement": "Concentration of amino acids in RPMI-1640 media", "setting": "T = 0 h", "value": "278 ± 7", "unit": "µM"},
      {"measurement": "Concentration of amino acids in RPMI-1640 media", "setting": "[2]", "value": "260 ± 12", "unit": "µM"}
    ]},
    {"molecule": "CC[C@H](C)[C@H](N)C(=O)O", "note": "[Ile, isoleucine]", "values": [
      {"measurement": "change in concentration of amino acid in the media", "setting": "[1]", "value": "decrease"},
      {"measurement": "Concentration of amino acids in RPMI-1640 media", "setting": "T = 0 h", "value": "426 ± 12", "unit": "µM"},
      {"measurement": "Concentration of amino acids in RPMI-1640 media", "setting": "[2]", "value": "324 ± 11", "unit": "µM"}
    ]},
    {"molecule": "CC(C)C[C@H](N)C(=O)O", "note": "[Leu, leucine]", "values": [
      {"measurement": "change in concentration of amino acid in the media", "setting": "[1]", "value": "decrease"},
      {"measurement": "Concentration of amino acids in RPMI-1640 media", "setting": "T = 0 h", "value": "368 ± 8", "unit": "µM"},
      {"measurement": "Concentration of amino acids in RPMI-1640 media", "setting": "[2]", "value": "277 ± 10", "unit": "µM"}
    ]},
    {"molecule": "NCCCC[C@H](N)C(=O)O", "note": "[Lys, lysine]", "values": [
      {"measurement": "Concentration of amino acids in RPMI-1640 media", "setting": "T = 0 h", "value": "202 ± 13", "unit": "µM"},
      {"measurement": "Concentration of amino acids in RPMI-1640 media", "setting": "[2]", "value": "181 ± 11", "unit": "µM"}
    ]},
    {"molecule": "CSCC[C@H](N)C(=O)O", "note": "[Met, methionine]", "values": [
      {"measurement": "Concentration of amino acids in RPMI-1640 media", "setting": "T = 0 h", "value": "362 ± 11", "unit": "µM"},
      {"measurement": "Concentration of amino acids in RPMI-1640 media", "setting": "[2]", "value": "360 ± 16", "unit": "µM"}
    ]},
    {"molecule": "N[C@@H](Cc1ccccc1)C(=O)O", "note": "[Phe, phenylalanine]", "values": [
      {"measurement": "Concentration of amino acids in RPMI-1640 media", "setting": "T = 0 h", "value": "326 ± 16", "unit": "µM"},
      {"measurement": "Concentration of amino acids in RPMI-1640 media", "setting": "[2]", "value": "298 ± 13", "unit": "µM"}
    ]},
    {"molecule": "N[C@@H](CO)C(=O)O", "note": "[Ser, serine]", "values": [
      {"measurement": "Concentration of amino acids in RPMI-1640 media", "setting": "T = 0 h", "value": "356 ± 14", "unit": "µM"},
      {"measurement": "Concentration of amino acids in RPMI-1640 media", "setting": "[2]", "value": "344 ± 17", "unit": "µM"}
    ]},
    {"molecule": "C[C@@H](O)[C@H](N)C(=O)O", "note": "[Thr, threonine]", "values": [
      {"measurement": "Concentration of amino acids in RPMI-1640 media", "setting": "T = 0 h", "value": "327 ± 17", "unit": "µM"},
      {"measurement": "Concentration of amino acids in RPMI-1640 media", "setting": "[2]", "value": "294 ± 13", "unit": "µM"}
    ]},
    {"molecule": "N[C@@H](Cc1c[nH]c2ccccc12)C(=O)O", "note": "[Trp, tryptophan]", "values": [
      {"measurement": "Concentration of amino acids in RPMI-1640 media", "setting": "T = 0 h", "value": "253 ± 8", "unit": "µM"},
      {"measurement": "Concentration of amino acids in RPMI-1640 media", "setting": "[2]", "value": "248 ± 11", "unit": "µM"}
    ]},
    {"molecule": "N[C@@H](Cc1ccc(O)cc1)C(=O)O", "note": "[Tyr, tyrosine]", "values": [
      {"measurement": "Concentration of amino acids in RPMI-1640 media", "setting": "T = 0 h", "value": "274 ± 12", "unit": "µM"},
      {"measurement": "Concentration of amino acids in RPMI-1640 media", "setting": "[2]", "value": "246 ± 24", "unit": "µM"}
    ]},
    {"molecule": "CC(C)[C@H](N)C(=O)O", "note": "[Val, valine]", "values": [
      {"measurement": "change in concentration of amino acid in the media", "setting": "[1]", "value": "decrease"},
      {"measurement": "Concentration of amino acids in RPMI-1640 media", "setting": "T = 0 h", "value": "383 ± 15", "unit": "µM"},
      {"measurement": "Concentration of amino acids in RPMI-1640 media", "setting": "[2]", "value": "328 ± 13", "unit": "µM"}
    ]}
  ]
}
